This test concerns the target V. cholerae cGAS (DncV) (V. cholerae) (UniProt Q9KVG7). The test is described as follows: affinity purification with mass spectrometry.

Protein sequences, listed by entry. Tags and fused reporters are not part of them.
UniProt Q9KVG7, whole entry: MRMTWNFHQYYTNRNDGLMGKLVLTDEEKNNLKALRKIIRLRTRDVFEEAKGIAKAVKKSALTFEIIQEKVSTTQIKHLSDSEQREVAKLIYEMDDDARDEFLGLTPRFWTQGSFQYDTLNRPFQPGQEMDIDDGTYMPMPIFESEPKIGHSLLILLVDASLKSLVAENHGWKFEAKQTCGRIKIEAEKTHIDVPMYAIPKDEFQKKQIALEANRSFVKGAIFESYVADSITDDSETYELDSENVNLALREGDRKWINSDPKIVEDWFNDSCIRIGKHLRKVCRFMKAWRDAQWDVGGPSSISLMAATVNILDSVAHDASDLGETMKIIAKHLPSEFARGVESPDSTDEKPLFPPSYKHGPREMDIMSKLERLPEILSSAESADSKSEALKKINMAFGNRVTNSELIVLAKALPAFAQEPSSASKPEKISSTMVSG

These are yes or no findings as the source states them, for the method shown. In cells and extracts the contact can be indirect. A yes stands for co-enrichment or nearness to the bait. Other partners may have been found. Where a sequence is shown, tags or fusion partners need not be part of it.

Experimental findings from paper doi:10.1101/2022.03.31.486616 are described below.

B1: V. cholerae Cap2 (CD-NTase-associated protein 2), untagged (enzyme, UniProt Q9KVG6 1-584)
chain: MKQELHHTLLGCGFRYTPAKQMPKGILLDTKSRRKGYYVKEYSTKGGVFVIALVLWNDPHIQLPFAYILQQPEQYKGRLLPHINFGFCLCYVTQMEADWNSNDLKSTYQDVDEQIQLTLDNSVASVESGTSNDVELEGEFSAYWQSEEELYLLAKPSRKAQLKAHLVEAELSSGSIRREYVAACSEQSEELVKWLNQRKFDESSLQEVSITTHCISVKPNRLAGVNWPPSCLREVLSWLKLVDYSAHARTVTLLMAKRTKRHILLFDVEGQDELAVYLELNLDVIGKRYFGRNAARKRNINNEAALLGGKFVSANFKRLGVTRADRDTLLSRNQSRPDVGNLSQKRIALIGCGTIGGYLAELLLRSGAGCGENYFHLYDNDSFKPHNFARHSLTAHNFGLAKSIALANSLKEAVHIAQSIKGIDRQFPIQADVLSKYDIVIDATGRPPVSKRLAAVARTLIADIRPVLIHAFNDGNGRASKVLVDDGRCCYGCMMADPAVYRNNIDLRFEGIDLAKEKHISCGSTYTPYDAAVSHITAALAQEAVLNTLEHTLPWNYSEHMLDGSRSKKPRTLKRFSGCNICDE
As to B1, the binding entry was “binds”.
